Assay results as given in patent US8245708B2, “Methods, devices and formulations for targeted endobronchial therapy” (The Research Foundation of State University of New York, priority 2002, dated 2012).

Assay: Aerosol delivery of antibiotics, nebulizer at distal Y position, three nebulizers (second experiment)
Details: T-BIRD, PORTEX nebulizer, continuous, humidity ON; percentage of nebulizer charge

In the case of `CN[C@H](CC(C)C)C(=O)N[C@H]1C(=O)N[C@@H](CC(N)=O)C(=O)N[C@H]2C(=O)N[C@H]3C(=O)N[C@H](C(=O)N[C@H](C(=O)O)c4cc(O)cc(O)c4-c4cc3ccc4O)[C@H](O)c3ccc(c(Cl)c3)Oc3cc2cc(c3O[C@@H]2O[C@H](CO)[C@@H](O)[C@H](O)[C@H]2O[C@H]2C[C@](C)(N)[C@H](O)[C@H](C)O2)Oc2ccc(cc2Cl)[C@H]1O` [vancomycin], the “% of EXPIRATORY FILT.” value was 7.9%.
